This assay addresses AKT serine/threonine kinase 1 (human (endogenous in Huh7)) (UniProt P31749). Kind of assay: affinity purification with mass spectrometry; co-IP of AKT1 from cell lysate, immunoprecipitate analysed by Nano-HPLC mass spectrometry (Proteome Discoverer 2.5); 882 proteins captured.

Protein sequences, listed by entry. Tags and fused reporters are not part of them.
UniProt P31749: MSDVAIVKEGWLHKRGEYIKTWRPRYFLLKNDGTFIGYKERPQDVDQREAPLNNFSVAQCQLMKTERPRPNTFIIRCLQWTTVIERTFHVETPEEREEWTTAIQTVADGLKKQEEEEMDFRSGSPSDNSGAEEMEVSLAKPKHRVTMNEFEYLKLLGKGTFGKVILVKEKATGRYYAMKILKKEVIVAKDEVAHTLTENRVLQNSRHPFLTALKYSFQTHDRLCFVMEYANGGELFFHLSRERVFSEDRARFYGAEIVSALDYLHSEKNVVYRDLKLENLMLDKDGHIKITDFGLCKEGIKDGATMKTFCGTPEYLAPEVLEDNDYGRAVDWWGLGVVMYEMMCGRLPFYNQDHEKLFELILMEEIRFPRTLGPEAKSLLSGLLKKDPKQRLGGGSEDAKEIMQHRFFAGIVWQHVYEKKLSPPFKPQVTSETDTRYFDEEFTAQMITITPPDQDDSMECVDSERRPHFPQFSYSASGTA

Results are given in words; binding and its absence hold for the method and conditions named. In cells and extracts the contact can be indirect. These calls come from enrichment with a bait or labelling near it, and not all partners need be listed.

B1: aldolase B (protein, UniProt P05062 1-364)
chain: MAHRFPALTQEQKKELSEIAQSIVANGKGILAADESVGTMGNRLQRIKVENTEENRRQFREILFSVDSSINQSIGGVILFHETLYQKDSQGKLFRNILKEKGIVVGIKLDQGGAPLAGTNKETTIQGLDGLSERCAQYKKDGVDFGKWRAVLRIADQCPSSLAIQENANALARYASICQQNGLVPIVEPEVIPDGDHDLEHCQYVTEKVLAAVYKALNDHHVYLEGTLLKPNMVTAGHACTKKYTPEQVAMATVTALHRTVPAAVPGICFLSGGMSEEDATLNLNAINLCPLPKPWKLSFSYGRALQASALAAWGGKAANKEATQEAFMKRAMANCQAAKGQYVHTGSSGAASTQSLFTACYTY
For the molecule B1, the binding entry is recorded as “binds”.
